Results published in the supplement of paper PMC10338343.
± gives the standard deviation. Only a part is listed here, and it is no random draw. The uncertainty is large for many entries.

What follows are sequences tested on MILI (PIWIL2) piRISC loaded with piRNA #2 (26 nt) (assay: pre-steady-state target cleavage rate (min^-1); MIWI and MILI are mouse PIWI proteins and EfPiwi is from a freshwater sponge; tags in brackets are library labels; higher = faster piRNA-guided slicing of the target). Conditions: guide: piRNA #2 5'p-UUAGGUAACCCAGUAGAUCCAGAGGA; auxiliary factor: 500 nM mouse GTSF1.
Protocol: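 Cleave-'n-Seq: a library of target RNAs (target site embedded in constant flanks, ACAGCATTCCGCGTTAGTGATATCCG... 5' flank; DNA-blocked outside the site) at 0.1 nM was incubated with 1 nM active mouse MILI or MIWI piRISC (synthetic 5'-monophosphorylated piRNA guide) with or without 500 nM mouse GTSF1 at 33 °C for 1 min to 16 h. Uncleaved targets were sequenced and normalised to non-target controls, and the pooled three trials were fitted to a burst-and-steady-state model to give the pre-steady-state cleavage rate (min^-1; k3 is constrained to at most 1e-4). Sequence is the target site only; target names encode pairing extent (gX:gY) and contiguous / 1-mismatch / 2-mismatch / bulge geometry. Fits with R² ≤ 0 are excluded.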

Row | Sequence | pre-steady-state target cleavage rate
1 | CUUAAGGAGACCUACUACUGGAGUUACCUAA | 0.000181 ± 0.024
2 | CUUAAGGACUGGUUCUACUGGGUAACCUAA | 0.00462 ± 0.0094
3 | CUUAAGGAGACGAUCUAGAGGGUUACCUAA | 0.00251 ± 0.0059
4 | CUUAAGGAGACCUACUAUUGGGUUACCUAA | 0.000354 ± 0.025
5 | CUUAUCCUCUGGUAGUACUGGGUUACCUAA | 0.103 ± 0.035
6 | CUUAUCCUGUGGAUCUACUGGCUUACCUAA | 0.000253 ± 0.036
7 | CUUAAGGAGACCUUCUACAGGGUUACCUUA | 0.00047 ± 0.017
8 | CUUAUCCUCUGAAUCUACUGGGUUACCUAA | 0.109 ± 0.023
9 | CUUAAGGUCUGGAUCUAGUGGGUUACGUAA | 0.0114 ± 0.004
10 | CUUAAGGAGACGAUCUACUGGGUUACCUCA | 0.000979 ± 0.011
11 | CUUAAGGAGACCAUCUACUGGCUUACCAAA | 0.00022 ± 0.035
12 | CUUAAGGAGACCUAGAUGUGGGUUUGCUAA | 0.000481 ± 0.018
13 | CUUAAGGAGACCAUCUACUGGGUGUACCUAA | 0.000541 ± 0.019
14 | CUUAAGGAGAGGAUGCUACUGGGUUACCUAA | 0.00163 ± 0.007
15 | CUUAAGGAGUGGAUCUAUCUGGGUUACCUAA | 0.000107 ± 0.048
16 | CUUAAGGUCUGGAACUACUGGGUUAGCUAA | 0.00906 ± 0.012
17 | CUUAAGCUCUGCAUCUACUGGGUUACCUAA | 0.0767 ± 0.016
18 | CUUAAGGAGUGAGAUCUACUGGGUUACCUAA | 0.00234 ± 0.0056
19 | CUUAACCUCUGGGAUCUACUGGGUUACCUAA | 0.168 ± 0.03
20 | CUUAAGGAGACCAUCUACUGGGUUACCUUA | 0.000554 ± 0.0096
21 | CUUAAGGAGACCUAGAUCUAGGUUACCUAA | 0.000241 ± 0.018
22 | CUUAAGCUCUGGAUCUACUAGGGUUACCUAA | 0.00205 ± 0.0051
23 | CUUAAGGAGACCUAGAAUUGGGUUACCUAA | 0.000169 ± 0.047
24 | CUUAAGGAGACGAUCUACUUGGGUUACCUAA | 0.00153 ± 0.0064

Row | Sequence | pre-steady-state target cleavage rate
25 | CUUAAGGAGACCUACUACUGGGUUACGUAA | 0.000454 ± 0.019
26 | CUUAAGGAGACGACCUACUGGGUUACCUAA | 0.00322 ± 0.0036
27 | CUUAAGGAGUGGAUCAACUGGGUUACGUAA | 0.000608 ± 0.02
28 | CUUAAGGAGAGGAUCUACUGGGAAACCUAA | 0.000976 ± 0.0089
29 | CUUAAGGACUGGAUCAACUGGGUUAGCUAA | 0.00417 ± 0.0081
30 | CUUAUCCUGUGGAUCUACUCGGUUACCUAA | 0.00114 ± 0.012
31 | CUUAUCCUCUGGAUCUACUGGGAUAGCUAA | 0.0182 ± 0.0088
32 | CUUAAGGACAGGAUCUACUGGGUUACGUAA | 0.00127 ± 0.016
33 | CUUAAGGACUGCAUCUACAGGGUUACCUAA | 0.0435 ± 0.015
34 | CUUAAGGAGACCUAGAUGUGGUGUUACCUAA | 0.000297 ± 0.021
35 | CUUAAGGACUCCUUCUACUGGGUUACCUAA | 0.000554 ± 0.013
36 | CUUAAGGUCUGGAUCUACUUGGGUUACCUAA | 0.000975 ± 0.0071
37 | CUUAAGGACUGGAUCUACUUGGUUACCUAA | 0.000791 ± 0.016
38 | CUUAAGGACUGGAACUACUGGGUAACCUAA | 0.00268 ± 0.0097
39 | CUUAAGGACUGGAUGUACUGCGUUACCUAA | 0.00228 ± 0.011
40 | CUUAAGGAGACGAUCUACUGGGUAUACCUAA | 0.00159 ± 0.0059
41 | CUUAAGGAGUGGAUGUAGUGGGUUACCUAA | 0.00193 ± 0.0058
42 | CUUAAGGAGACCUAGAUCUGGGUCACCUAA | 0.000374 ± 0.033
43 | CUUAAGGAGACGAUCUUCUGGGUUACCAAA | 0.00122 ± 0.0061
44 | CUUAUCCUCUGGAUCUACUCGGUUACGUAA | 0.000126 ± 0.1
45 | CUUAAGGAGAGGAUCUACUGGGAUACCUAA | 0.00208 ± 0.0063
46 | CUUAUCCUCUCGUUCUACUGGGUUACCUAA | 0.136 ± 0.021
47 | CUUAAGGACUGCAUGUACUGGGUUACCUAA | 0.00613 ± 0.0099
48 | CUUAAGGACUGGAUCUACUGGGAUAGCUAA | 0.000162 ± 0.043

Row | Sequence | pre-steady-state target cleavage rate
49 | CUUAAGGAGACGAUCAACUGGGAUACCUAA | 0.000129 ± 0.038
50 | CUUAAGGUCUGGAACUACUGGGUUUCCUAA | 0.00266 ± 0.006
51 | CUUAAGGAGACCUAGAUGACGGUUACCAUA [g4:g10:cont:t1A] | 0.000279 ± 0.017
52 | CUUAAGGAGACCAUCUACAGCGUUACCUAA | 0.000936 ± 0.0066
53 | CUUAAGGACUGGAUCUACUGGGUUAGCUUA | 0.00119 ± 0.021
54 | CUUAUCCUCUGGAUCUGACUGGGUUACCUAA | 0.000784 ± 0.022
55 | CUUAAGGUCUGGAUCACUGGGUUACCUAA | 0.00355 ± 0.0046
56 | CUUAAGGAGAGGAACUACUGGGUUACCUAA | 0.00185 ± 0.0073
57 | CUUAAGGAGAGGAACUACUGGGUUUCCUAA | 0.00118 ± 0.0078
58 | CUUAAGGAGUGGAUCUUCUGGGUUAGCUAA | 0.000372 ± 0.031
59 | CUUAAGGACUGGAUCUACUGGUUUACCUAA | 0.00208 ± 0.016
60 | CUUAAGGAGACGAUCUACUGGGUUAUCUAA | 0.00177 ± 0.005
61 | CUUAUCCUCUGGAUCAACUGGCUUACCUAA | 0.000669 ± 0.016
62 | CUUAUCCUCUGUAUCUACUGGGUUACCUAA | 0.0865 ± 0.015
63 | CUUAUCGUCUCGAUCUACUGGGUUACCUAA | 0.0585 ± 0.014
64 | CUUAAGGAGACCAACUACUCGGUUACCUAA | 0.000152 ± 0.027
65 | CUUAAGGAGACCUAGUGCUGGGUUACCUAA | 0.000484 ± 0.02
66 | CUUAAGGUCUGGAUCUAUCUGGGUUACCUAA | 0.000503 ± 0.014
67 | CUUAAGGACUGGAAUCUACUGGGUUACCUAA | 0.00939 ± 0.0096
68 | CUUAACCUCUGGAUCUACUGCGAUACCUAA | 0.000935 ± 0.01
69 | CUUAAGGAGUGGAACUACUGGGUUACGUAA | 0.000343 ± 0.029
70 | CUUAAGGAGAGGAUCAUACUGGGUUACCUAA | 0.000211 ± 0.024
71 | CUUAAGGAGUGGACUCUACUGGGUUACCUAA | 0.00389 ± 0.006
72 | CUUAUCCUCUGGAUCUACUGGCUUACCUUA | 0.00121 ± 0.0074

Reformatted as tab-separated lines: entries from further up
Row	Sequence	pre-steady-state target cleavage rate
54	CUUAUCCUCUGGAUCUGACUGGGUUACCUAA	0.000784 ± 0.022
55	CUUAAGGUCUGGAUCACUGGGUUACCUAA	0.00355 ± 0.0046
56	CUUAAGGAGAGGAACUACUGGGUUACCUAA	0.00185 ± 0.0073
57	CUUAAGGAGAGGAACUACUGGGUUUCCUAA	0.00118 ± 0.0078
58	CUUAAGGAGUGGAUCUUCUGGGUUAGCUAA	0.000372 ± 0.031
59	CUUAAGGACUGGAUCUACUGGUUUACCUAA	0.00208 ± 0.016
60	CUUAAGGAGACGAUCUACUGGGUUAUCUAA	0.00177 ± 0.005
61	CUUAUCCUCUGGAUCAACUGGCUUACCUAA	0.000669 ± 0.016
62	CUUAUCCUCUGUAUCUACUGGGUUACCUAA	0.0865 ± 0.015
63	CUUAUCGUCUCGAUCUACUGGGUUACCUAA	0.0585 ± 0.014
64	CUUAAGGAGACCAACUACUCGGUUACCUAA	0.000152 ± 0.027
65	CUUAAGGAGACCUAGUGCUGGGUUACCUAA	0.000484 ± 0.02
66	CUUAAGGUCUGGAUCUAUCUGGGUUACCUAA	0.000503 ± 0.014
67	CUUAAGGACUGGAAUCUACUGGGUUACCUAA	0.00939 ± 0.0096
68	CUUAACCUCUGGAUCUACUGCGAUACCUAA	0.000935 ± 0.01
69	CUUAAGGAGUGGAACUACUGGGUUACGUAA	0.000343 ± 0.029
